Publication doi:10.1101/2023.05.28.542599

Molecular target: TgTBC9^3xHA (Toxoplasma gondii)
Assay: affinity purification with mass spectrometry

B1: Rab11B (protein, UniProt Q7Z158 1-226)
chain: MAGGSEDYDHLYKVILVGDATVGKTHLLSRYIRGTLPKSPKATIGVEFATRTVPLAVGGTVKAQIWDTAGQERYRSITSAHYRRAVGALLVYDVTRKSTFLNASKWLEELRQNSEPDIVIMMVGNKLDLVEKDPTARDVPYELAAKFAQANGLYFSEASAVTAFNVKHIFEHLLQEIYNHRTQGEEFSGRANGADAYRDAQALGGVRLAANANMYGRNPQNLSCCG
binding: binds

No constants are given. Whether binding was seen depends on the method and setting. Binding seen in cells or lysates may run through a third protein. These calls come from enrichment with a bait or labelling near it, and not all partners need be listed.
